Assay [1] concerns the target T1, FLAG-tagged human C2CD4A (C2 calcium dependent domain containing protein 4A) (human) (UniProt Q8NCU7).
T1 sequence: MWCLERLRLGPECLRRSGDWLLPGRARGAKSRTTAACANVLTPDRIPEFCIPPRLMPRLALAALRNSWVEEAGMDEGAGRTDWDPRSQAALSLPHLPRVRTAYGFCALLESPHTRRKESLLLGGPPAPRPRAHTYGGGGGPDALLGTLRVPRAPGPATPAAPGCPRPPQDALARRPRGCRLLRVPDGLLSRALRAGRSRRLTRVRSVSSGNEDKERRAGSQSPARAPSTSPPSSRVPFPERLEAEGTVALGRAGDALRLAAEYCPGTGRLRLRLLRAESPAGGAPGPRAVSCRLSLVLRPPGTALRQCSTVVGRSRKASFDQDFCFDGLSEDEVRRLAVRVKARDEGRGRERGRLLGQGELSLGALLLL
Kind of assay: affinity purification with mass spectrometry; immunoprecipitation from MIN6 cells transfected in duplicate with FLAG-tagged human C2CD4A or C2CD4B; FLAG tag-only plasmid as negative control; hits normalised to the negative control and ranked by abundance.

For assay [2], the target named is T2, FLAG-tagged human C2CD4B (C2 calcium dependent domain containing protein 4B) (human) (UniProt A6NLJ0).
T2 sequence: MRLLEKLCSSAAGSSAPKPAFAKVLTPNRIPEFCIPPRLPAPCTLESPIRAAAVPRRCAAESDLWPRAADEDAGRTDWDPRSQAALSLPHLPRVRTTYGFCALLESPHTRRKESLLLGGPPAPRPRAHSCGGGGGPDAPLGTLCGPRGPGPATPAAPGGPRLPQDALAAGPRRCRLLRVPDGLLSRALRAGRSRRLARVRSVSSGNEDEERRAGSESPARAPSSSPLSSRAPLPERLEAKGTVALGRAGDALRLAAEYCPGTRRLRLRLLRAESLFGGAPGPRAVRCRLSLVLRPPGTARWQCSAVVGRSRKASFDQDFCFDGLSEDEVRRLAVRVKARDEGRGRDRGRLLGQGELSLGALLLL
The description is as above.

Results are given in words; binding and its absence hold for the method and conditions named. Binding seen in cells or lysates may run through a third protein. Here binding means that the protein was enriched with, or labelled near, the bait; the list need not be complete. Where a sequence is shown, tags or fusion partners need not be part of it.

B1: PTPRN2 (phogrin/IA-2β) (protein, UniProt P80560 28-1001)
chain: RGRQLPGRLGCLFEDGLCGSLETCVNDGVFGRCQKVPVMDTYRYEVPPGALLHLKVTLQKLSRTGFTWQDDYTQRVIAQELANLPKAYLWHGEASGPARSLQQNADNEKWFSLEREVALAKTLRRYLPYLELLSQTPTANAHSRIDHETRPAKGEDSSPENILTYVAHTSALTYPPATRAKYPDNLLRPFSRLQPDELSPKVDGDIDKQKLIAALGAYTAQRLPGENDPEPRYLVHGSARAPRPFSATALSQRWPPPPGDAKDSPSMDDDTLLQSLLKDLQQNSEVDRLGPLKEEKADSVAGAIQSDPAEGSQESHGRGAEGQPREQTDAPETMLQDHRLSEVDDPVYKEVNRLSFQLGDLLKDYGSPLLPEGPLLEKSSREEIKKSEQPEEVLSSEEETAGVEHVRSRTYSKDLFERKPNSEPQPRRLEDQFQNRAPELWEDEESLKLAAQGPPSGGLQLEVQPSEEQQGYILTGNNPLSPEKGKQLMDQVAHILRVPSSFFADIKVLGPAVTFKVSANIQNMTTADVIKAAADNKDQLEKATGLTILQSGIRPKGKLKLLPHQEEQEDSTKFILLTFLSIACILGVLLASSLAYCLRHNSHYKLKDKLSGLGADPSADATEAYQELCRQRMAIRPQDRSEGPHTSRINSVSSQFSDGPMPSPSARSSTSSWSEEPVQSNMDISTGHMILAYMEDHLKNKNRLEKEWEALCAYQAEPNSSLVAQREENAPKNRSLAVLTYDHSRILLKSQNSHGSSDYINASPIMDHDPRNPAYIATQGPLPATVADFWQMVWESGCAVIVMLTPLSENGVRQCHHYWPDEGSNLYHVYEVNLVSEHIWCQDFLVRSFYLKNLQTNETRTVTQFHFLSWYDQGVPSSTRSLLDFRRKVNKCYRGRSCPIIVHCSDGAGRSGTYVLIDMVLNKMAKGAKEIDIAATLEHLRDQRPGMVQTKEQFEFALTAVAEEVNAILKALPQ
For B1, the binding entry in assay [1] and in assay [2] was “binds” throughout.

B2: Receptor-type tyrosine-protein phosphatase-like N (protein, UniProt Q60673 38-979)
chain: ISAHGCLFDRRLCSHLEVCIQDGLFGQCQAGVGQARPLLQVTSPVLQRLQGVLRQLMSQGLSWHDDLTQHVISQEMERIPRLRPPEPHPRDRSGLVPRKPGPAGELLTQGNPTGSSPAAQGFPRPAGGRSWGGSPLSSLQAELLPPLLEHLLMPPQPPHPALTYEPALLQPYLFHQFGSRDGSRGSESSSGVVGVGHLSKAEGPALFSRSASKAILGTHSGHSFGDLTGPSPAQLFQDSGLLYMAQELPVPGRARAPRLPENGGNRAEDSSEGHEEEVLGGRGEKSPPQAAQPELSLQRLTAVLAGYGVELRQLTPEQFSTLLTLLQLLPKGTGRNLEGAVNVGGADVKKTIQQMQRGDPAEALPPTPSLPGYLTASPASSEVQQVLSPGFPEPPHTPSPLGSSSVLLEKKSPLGQSQPTVVGRPSARPSAEEYGYIVTDQKPLSLVAGVRLLEILAEHVHMSSGSFINISVVGPAVTFRIRHNEQNLSLADVTQQAGLVKSELEAQTGLQILQTGVGQREEAAEVLPRQAHGISPMRSVLLTLVALAGVAGLLVALAVALCMRHHSRQRDKERLAALGPEGAHGDTTFEYQDLCRQHMATKSLFNRAEGQPEPSRVSSVSSQFSDAAQASPSSHSSTPSWCEEPAQANMDISTGHMILAYMEDHLRNRDRLAKEWQALCAYQAEPNTCAAAQDESNIKKNRHPDFLPYDHARIKLKVESSPSRSDYINASPIIEHDPRMPAYIATQGPLSHTIADFWQMVWESGCTVIVMLTPLVEDGVKQCDRYWPDEGSSLYHVYEVNLVSEHIWCEDFLVRSFYLKNLQTQETRTLTQFHFLSWPAEGTPASTRPLLDFRRKVNKCYRGRSCPIIVHCSDGAGRTGTYILIDMVLNRMAKGVKEIDIAATLEHVRDQRPGLVRSKDQFEFALTAVAEEVNAILKALPQ
For the molecule B2, the binding entry in assay [1] and in assay [2] was “binds” each time.

For the origin of these results see article PMC7829492.
